No constants are given. Whether binding was seen depends on the method and setting. Some binding calls cover weakened binding; strength is not graded here. For some of these results: Where a sequence is shown, tags or fusion partners need not be part of it.
What was measured:
[1] = target: T1, human epithelial cell adhesion molecule (EpCAM), endogenous in SAS and other cancer cells (human) (UniProt P16422); experiment: cellular ELISA on SAS cells, OD490nm
T1 sequence: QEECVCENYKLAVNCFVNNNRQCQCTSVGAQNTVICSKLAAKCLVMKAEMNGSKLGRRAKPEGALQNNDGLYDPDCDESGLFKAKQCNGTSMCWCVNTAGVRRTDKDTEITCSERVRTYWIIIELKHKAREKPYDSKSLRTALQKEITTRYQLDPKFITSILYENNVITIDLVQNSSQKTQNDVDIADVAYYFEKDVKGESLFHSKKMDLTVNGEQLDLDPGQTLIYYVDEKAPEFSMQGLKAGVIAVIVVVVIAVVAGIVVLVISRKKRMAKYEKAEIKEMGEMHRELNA

[2] = target: T1, human epithelial cell adhesion molecule (EpCAM), endogenous in SAS and other cancer cells (human); experiment: Western blot of SAS, HCT116 and NNM lysates
[3] = target: T1, human epithelial cell adhesion molecule (EpCAM), endogenous in SAS and other cancer cells (human); experiment: Western blot of NNM, SAS and HCT116 lysates
[4] = target: T2, wild-type human EpCAM expressed from pcDNA3.1/V5-His in HEK293 cells (human) (UniProt P16422); experiment: Western blot of lysates of HEK293 cells transfected with EpCAM-V5 constructs
T2 sequence: T1 sequence

[5] = target: T1, human epithelial cell adhesion molecule (EpCAM), endogenous in SAS and other cancer cells (human); experiment: immunofluorescence staining of SAS, HCT116 and NNM cells
[6] = target: T1, human epithelial cell adhesion molecule (EpCAM), endogenous in SAS and other cancer cells (human); experiment: summary statement on EpAb2-6 in the results
[7] = target: T1, human epithelial cell adhesion molecule (EpCAM), endogenous in SAS and other cancer cells (human); experiment: summary table; grades are cellular ELISA OD 490nm classes

Measured: binding

B1: EpAb2-6 (antibody, V domains shown)
VH: EVQLVESGPELKKPGETVKISCKASGYTFTDYSMHWVKQAPGKGLKWMGWINTETGEPTFADDFKGRFAFSLETSARTTYLQINNLKNEDTATYFCARTAVYWGQGTSLTVSS
VL: DIQLTQSPSSLSASLGERVSLTCRASQEISVSLSWLQQKPDGTIKRLIYATSTLDSGVPKRFSGSRSGSDYSLTISSLESEDFADYYCLQYASYPWTFGGGTKLEIKR
notes: Mouse hybridoma monoclonal IgG; also called mEpAb2-6; murine EpAb2-6
binds: all assays above

From patent US20150017230A1 (ACADEMIA SINICA, published 2015)
